In patent US20230384333A1 (priority 2020, published 2023):

System: dLight
Type: cell-based

## CCN(CC)C(=O)N[C@H]1C=C2c3cccc4[nH]cc(c34)C[C@H]2N(C)C1 [LIS, lisuride]
  activation of dLight: both activated dLight to the same extent
